Experimental data published in paper PMC4149420.
These are yes or no findings as the source states them, for the method shown. Binding seen in cells or lysates may run through a third protein. Some results given as binding are weak or reduced against the parent protein; the word gives no strength.

By UniProt entry, the sequences of proteins in these tests, tags left out.
UniProt A2A5Z6: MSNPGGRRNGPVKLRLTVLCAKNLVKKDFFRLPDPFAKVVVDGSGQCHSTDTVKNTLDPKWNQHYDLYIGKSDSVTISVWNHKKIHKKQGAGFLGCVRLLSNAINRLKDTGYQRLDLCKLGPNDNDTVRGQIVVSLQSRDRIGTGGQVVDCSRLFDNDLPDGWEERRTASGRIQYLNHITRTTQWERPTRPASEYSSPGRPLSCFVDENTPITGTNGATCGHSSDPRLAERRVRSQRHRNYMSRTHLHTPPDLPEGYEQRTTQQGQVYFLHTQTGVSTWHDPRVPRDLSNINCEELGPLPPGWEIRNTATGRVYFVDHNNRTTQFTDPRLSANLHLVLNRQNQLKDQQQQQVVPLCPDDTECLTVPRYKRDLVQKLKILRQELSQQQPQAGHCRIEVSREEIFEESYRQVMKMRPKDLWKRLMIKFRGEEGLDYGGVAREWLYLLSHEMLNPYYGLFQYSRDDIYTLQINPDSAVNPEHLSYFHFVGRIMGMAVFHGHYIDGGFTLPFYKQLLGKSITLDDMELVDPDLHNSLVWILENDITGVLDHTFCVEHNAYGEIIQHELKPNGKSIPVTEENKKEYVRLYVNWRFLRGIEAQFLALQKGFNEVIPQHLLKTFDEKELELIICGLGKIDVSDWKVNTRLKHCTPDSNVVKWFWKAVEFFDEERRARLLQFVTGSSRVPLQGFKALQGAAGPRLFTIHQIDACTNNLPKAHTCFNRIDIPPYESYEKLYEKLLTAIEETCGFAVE
UniProt Q62432: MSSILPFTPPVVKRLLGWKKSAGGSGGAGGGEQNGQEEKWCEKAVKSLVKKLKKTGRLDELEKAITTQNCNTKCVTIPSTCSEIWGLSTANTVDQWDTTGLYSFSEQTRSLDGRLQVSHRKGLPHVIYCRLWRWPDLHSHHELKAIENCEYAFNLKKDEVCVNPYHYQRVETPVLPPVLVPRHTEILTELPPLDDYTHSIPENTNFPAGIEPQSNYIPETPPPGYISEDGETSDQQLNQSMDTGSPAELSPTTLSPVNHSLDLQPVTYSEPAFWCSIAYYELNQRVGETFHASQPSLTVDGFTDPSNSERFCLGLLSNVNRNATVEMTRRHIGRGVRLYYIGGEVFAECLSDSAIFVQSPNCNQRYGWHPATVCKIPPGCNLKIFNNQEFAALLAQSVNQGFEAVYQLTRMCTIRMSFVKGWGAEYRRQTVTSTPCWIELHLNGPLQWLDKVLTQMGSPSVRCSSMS

Target: Smurf2 (mouse (endogenous in MEFs)) (UniProt A2A5Z6)
Test: co-IP; MEF lysates (500 µg) of WT and SARA mutant MEFs immunoprecipitated with Smurf2 antibody and blotted with the indicated antibodies (Figure 7B lower panel, Figure 7D)

## Smad2 (from UniProt Q62432 1-467)
  binding: binds
